Values quoted from earlier work as cited in PMC7697888, “Comprehensive Set of Tertiary Complex Structures and Palmitic Acid Binding Provide Molecular Insights into Ligand Design for RXR Isoforms” (International Journal of Molecular Sciences, 2020).

Design: method as in PMID 25675440
Conditions: young healthy Canadian adults; cited from earlier work

Row | SMILES | maximum plasma concentration (endogenous)
1 | CCCCCCCCCCCCCCCC(=O)O [PA, palmitic acid] | 4.0 mM
2 | CC/C=C\C/C=C\C/C=C\C/C=C\C/C=C\C/C=C\CCC(=O)O [docosahexaenoic acid, reference compound] | 0.2 mM
3 | CCCCCCCCCCCCCCCCCC(=O)O [SA, stearic acid] | up to 1.0 mM
4 | CCCCCCCCCCCCCC(=O)O [MA, myristic acid] | ≤ 0.3 mM
5 | CCCCC/C=C\C/C=C\C/C=C\C/C=C\CCCC(=O)O [arachidonic acid, reference compound] | 0.8 mM
